PMC10996840 (RSC Advances, 2024)

System: MCF-7 cells
Experiment: MTT cytotoxicity assay against MCF-7 cells
Assay type: cell-based
Details: Homo sapiens, MCF7, read-out: IC50 ± SD MCF-7

Question: `CN[C@@H]1C[C@H]2O[C@@](C)([C@@H]1OC)n1c3ccccc3c3c4c(c5c6ccccc6n2c5c31)C(=O)NC4` [Staurosporine, reference compound] was tested. Which IC50 did it give?
Answer: 6.76 ± 0.51 µM
